Consider five sequences from patent US20030229003, “Use of transcription factors for treating inflammation and other diseases” (published 2003).

Chains of the proteins cited; added tags and fusions are not shown. A line that says so, or that is headed by a name, gives the form on record, which may keep a tag or linker.
NF-kB p50/p65 (Homo sapiens), one chain, as listed by the source, chain 1 of 2: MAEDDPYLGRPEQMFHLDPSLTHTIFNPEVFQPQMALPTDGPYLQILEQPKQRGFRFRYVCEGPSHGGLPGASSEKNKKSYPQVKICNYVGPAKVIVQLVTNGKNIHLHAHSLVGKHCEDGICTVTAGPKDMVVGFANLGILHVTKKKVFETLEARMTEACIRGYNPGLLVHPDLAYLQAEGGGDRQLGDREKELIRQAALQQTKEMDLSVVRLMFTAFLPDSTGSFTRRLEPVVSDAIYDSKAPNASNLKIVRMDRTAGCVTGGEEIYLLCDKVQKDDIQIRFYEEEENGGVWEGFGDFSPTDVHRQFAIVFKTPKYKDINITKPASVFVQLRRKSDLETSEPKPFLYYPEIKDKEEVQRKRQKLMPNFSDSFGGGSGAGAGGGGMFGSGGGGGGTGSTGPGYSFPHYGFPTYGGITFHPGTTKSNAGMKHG
NF-kB p50/p65 (Homo sapiens), one chain, as listed by the source, chain 2 of 2: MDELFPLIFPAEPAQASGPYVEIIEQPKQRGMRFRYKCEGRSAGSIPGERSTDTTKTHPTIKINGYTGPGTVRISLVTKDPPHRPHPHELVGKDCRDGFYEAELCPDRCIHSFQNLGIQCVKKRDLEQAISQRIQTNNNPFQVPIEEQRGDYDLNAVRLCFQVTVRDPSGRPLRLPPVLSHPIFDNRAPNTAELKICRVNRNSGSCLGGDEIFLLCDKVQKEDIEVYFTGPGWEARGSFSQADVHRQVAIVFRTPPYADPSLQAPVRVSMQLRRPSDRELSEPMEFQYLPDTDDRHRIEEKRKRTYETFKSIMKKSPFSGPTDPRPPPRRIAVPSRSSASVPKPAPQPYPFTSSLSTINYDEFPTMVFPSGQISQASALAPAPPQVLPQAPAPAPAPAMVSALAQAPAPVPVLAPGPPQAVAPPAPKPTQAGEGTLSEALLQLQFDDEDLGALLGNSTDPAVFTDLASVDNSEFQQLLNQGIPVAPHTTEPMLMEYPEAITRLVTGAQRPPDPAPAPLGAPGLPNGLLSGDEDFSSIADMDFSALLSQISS

For some assays here: The comparison behind a weaker result is the experiment's own reference, which may not be listed here. For some assays here: Where a protein sequence is shown, tags need not be part of it. For some assays here: Results from cells or extracts need not show a direct contact. For some assays here: For at least one entry, the source does not settle the construct or the ends of the probe. For some assays here: Negatives hold for the conditions tested.

The target of data set [1] is T1, ESE-1 (ELF3) (Homo sapiens) (UniProt P78545).
T1 sequence (looked up, limits assumed): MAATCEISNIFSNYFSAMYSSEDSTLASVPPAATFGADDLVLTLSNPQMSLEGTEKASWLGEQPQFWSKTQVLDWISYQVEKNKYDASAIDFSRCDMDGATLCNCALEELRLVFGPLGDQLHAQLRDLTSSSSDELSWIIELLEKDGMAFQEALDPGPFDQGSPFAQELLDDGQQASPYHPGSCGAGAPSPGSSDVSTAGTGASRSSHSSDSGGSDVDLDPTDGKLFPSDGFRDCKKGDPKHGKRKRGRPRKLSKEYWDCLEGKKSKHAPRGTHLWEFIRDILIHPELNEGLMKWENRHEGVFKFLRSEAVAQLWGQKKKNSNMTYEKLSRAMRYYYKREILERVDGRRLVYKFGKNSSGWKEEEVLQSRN
Briefly: EMSA. The conditions noted are these: weak complex; data not shown; protein translated in vitro; protein details: pCI/ESE-1, TNT rabbit reticulocyte lysate; label: 32P. (In EMSA bound probe runs differently from free probe, usually more slowly.)

Data set [2] has as its system NF-kB p50/p65 (Homo sapiens). Briefly: EMSA. As to conditions: protein in an extract, label: 32P.
Data set [3] relates to NF-kB p50/p65 (Homo sapiens). Briefly: competition with a labelled probe. The conditions noted are these: unlabeled mutant competitor 1-100 ng; specificity stated as confirmed, non-competition implied; protein in an extract; variant of ESE-1 promoter NF-kB site wild type.

Turning to “TCTCATTTCCGTGGGTAAAAA (double strand) [COX-2 promoter Ets site 5]”, the binding result in data set [1] is “binds more weakly”.

As to “AGGCCAGGAAATCCCCTCCATC (double strand) [ESE-1 promoter NF-kB site wild type]”, the binding result in data set [2] (IL-1beta-inducible complex, supershifted by p50 and p65 antibodies only) was “binds”.

Regarding “TCGACATGTGGGATTTTCCCATGAC (double strand) [IL-6 promoter NF-kB site]”, the binding result in data set [2] (complex comigrates with ESE-1/NF-kB complex) is listed as “binds”.

For “AGGCCAGGAAATCGGATCCATC (double strand) [ESE-1 promoter NF-kB site mutant]”, in data set [3], the binding result is recorded as “no binding”.

For the sequence “GAGAGAACCTTCCTTTTTATAA (double strand) [COX-2 promoter Ets site 2]”, the binding result in data set [1] is recorded as “binds more weakly”.
